Results published in the supplement of paper PMC11006884.
The entries are a selection whose mix differs from that of the whole data set. This is a noisy data set.

The chains behind the UniProt entries cited, without tags or fusion partners. Where a name states a change or a piece, a line headed by the entry shows the natural chain unless it says otherwise.
UniProt P62312: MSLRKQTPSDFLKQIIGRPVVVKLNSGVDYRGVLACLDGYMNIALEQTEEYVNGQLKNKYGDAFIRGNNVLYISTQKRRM
UniProt Q00839, whole entry, looked up: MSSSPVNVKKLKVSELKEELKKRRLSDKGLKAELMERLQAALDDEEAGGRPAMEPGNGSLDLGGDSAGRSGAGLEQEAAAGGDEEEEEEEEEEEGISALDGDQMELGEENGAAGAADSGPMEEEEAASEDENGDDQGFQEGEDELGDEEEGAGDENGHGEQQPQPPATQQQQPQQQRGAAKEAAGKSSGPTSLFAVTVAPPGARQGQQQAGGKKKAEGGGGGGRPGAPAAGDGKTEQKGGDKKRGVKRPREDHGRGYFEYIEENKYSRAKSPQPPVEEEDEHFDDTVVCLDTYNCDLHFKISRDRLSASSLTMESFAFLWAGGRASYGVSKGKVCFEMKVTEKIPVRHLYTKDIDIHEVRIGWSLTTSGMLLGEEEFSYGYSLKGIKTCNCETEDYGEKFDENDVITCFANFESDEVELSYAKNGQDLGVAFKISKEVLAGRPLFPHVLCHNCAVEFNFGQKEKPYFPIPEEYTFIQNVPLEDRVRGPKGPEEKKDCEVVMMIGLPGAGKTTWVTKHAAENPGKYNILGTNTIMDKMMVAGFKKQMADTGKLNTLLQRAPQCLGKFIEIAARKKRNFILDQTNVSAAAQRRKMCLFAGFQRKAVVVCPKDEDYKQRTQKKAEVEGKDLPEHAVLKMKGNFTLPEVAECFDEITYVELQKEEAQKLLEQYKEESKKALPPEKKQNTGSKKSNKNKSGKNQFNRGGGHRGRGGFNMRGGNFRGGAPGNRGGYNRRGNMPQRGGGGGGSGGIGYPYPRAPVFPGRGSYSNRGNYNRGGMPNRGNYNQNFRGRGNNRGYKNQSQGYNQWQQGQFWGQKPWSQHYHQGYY
UniProt P78527, whole entry, looked up: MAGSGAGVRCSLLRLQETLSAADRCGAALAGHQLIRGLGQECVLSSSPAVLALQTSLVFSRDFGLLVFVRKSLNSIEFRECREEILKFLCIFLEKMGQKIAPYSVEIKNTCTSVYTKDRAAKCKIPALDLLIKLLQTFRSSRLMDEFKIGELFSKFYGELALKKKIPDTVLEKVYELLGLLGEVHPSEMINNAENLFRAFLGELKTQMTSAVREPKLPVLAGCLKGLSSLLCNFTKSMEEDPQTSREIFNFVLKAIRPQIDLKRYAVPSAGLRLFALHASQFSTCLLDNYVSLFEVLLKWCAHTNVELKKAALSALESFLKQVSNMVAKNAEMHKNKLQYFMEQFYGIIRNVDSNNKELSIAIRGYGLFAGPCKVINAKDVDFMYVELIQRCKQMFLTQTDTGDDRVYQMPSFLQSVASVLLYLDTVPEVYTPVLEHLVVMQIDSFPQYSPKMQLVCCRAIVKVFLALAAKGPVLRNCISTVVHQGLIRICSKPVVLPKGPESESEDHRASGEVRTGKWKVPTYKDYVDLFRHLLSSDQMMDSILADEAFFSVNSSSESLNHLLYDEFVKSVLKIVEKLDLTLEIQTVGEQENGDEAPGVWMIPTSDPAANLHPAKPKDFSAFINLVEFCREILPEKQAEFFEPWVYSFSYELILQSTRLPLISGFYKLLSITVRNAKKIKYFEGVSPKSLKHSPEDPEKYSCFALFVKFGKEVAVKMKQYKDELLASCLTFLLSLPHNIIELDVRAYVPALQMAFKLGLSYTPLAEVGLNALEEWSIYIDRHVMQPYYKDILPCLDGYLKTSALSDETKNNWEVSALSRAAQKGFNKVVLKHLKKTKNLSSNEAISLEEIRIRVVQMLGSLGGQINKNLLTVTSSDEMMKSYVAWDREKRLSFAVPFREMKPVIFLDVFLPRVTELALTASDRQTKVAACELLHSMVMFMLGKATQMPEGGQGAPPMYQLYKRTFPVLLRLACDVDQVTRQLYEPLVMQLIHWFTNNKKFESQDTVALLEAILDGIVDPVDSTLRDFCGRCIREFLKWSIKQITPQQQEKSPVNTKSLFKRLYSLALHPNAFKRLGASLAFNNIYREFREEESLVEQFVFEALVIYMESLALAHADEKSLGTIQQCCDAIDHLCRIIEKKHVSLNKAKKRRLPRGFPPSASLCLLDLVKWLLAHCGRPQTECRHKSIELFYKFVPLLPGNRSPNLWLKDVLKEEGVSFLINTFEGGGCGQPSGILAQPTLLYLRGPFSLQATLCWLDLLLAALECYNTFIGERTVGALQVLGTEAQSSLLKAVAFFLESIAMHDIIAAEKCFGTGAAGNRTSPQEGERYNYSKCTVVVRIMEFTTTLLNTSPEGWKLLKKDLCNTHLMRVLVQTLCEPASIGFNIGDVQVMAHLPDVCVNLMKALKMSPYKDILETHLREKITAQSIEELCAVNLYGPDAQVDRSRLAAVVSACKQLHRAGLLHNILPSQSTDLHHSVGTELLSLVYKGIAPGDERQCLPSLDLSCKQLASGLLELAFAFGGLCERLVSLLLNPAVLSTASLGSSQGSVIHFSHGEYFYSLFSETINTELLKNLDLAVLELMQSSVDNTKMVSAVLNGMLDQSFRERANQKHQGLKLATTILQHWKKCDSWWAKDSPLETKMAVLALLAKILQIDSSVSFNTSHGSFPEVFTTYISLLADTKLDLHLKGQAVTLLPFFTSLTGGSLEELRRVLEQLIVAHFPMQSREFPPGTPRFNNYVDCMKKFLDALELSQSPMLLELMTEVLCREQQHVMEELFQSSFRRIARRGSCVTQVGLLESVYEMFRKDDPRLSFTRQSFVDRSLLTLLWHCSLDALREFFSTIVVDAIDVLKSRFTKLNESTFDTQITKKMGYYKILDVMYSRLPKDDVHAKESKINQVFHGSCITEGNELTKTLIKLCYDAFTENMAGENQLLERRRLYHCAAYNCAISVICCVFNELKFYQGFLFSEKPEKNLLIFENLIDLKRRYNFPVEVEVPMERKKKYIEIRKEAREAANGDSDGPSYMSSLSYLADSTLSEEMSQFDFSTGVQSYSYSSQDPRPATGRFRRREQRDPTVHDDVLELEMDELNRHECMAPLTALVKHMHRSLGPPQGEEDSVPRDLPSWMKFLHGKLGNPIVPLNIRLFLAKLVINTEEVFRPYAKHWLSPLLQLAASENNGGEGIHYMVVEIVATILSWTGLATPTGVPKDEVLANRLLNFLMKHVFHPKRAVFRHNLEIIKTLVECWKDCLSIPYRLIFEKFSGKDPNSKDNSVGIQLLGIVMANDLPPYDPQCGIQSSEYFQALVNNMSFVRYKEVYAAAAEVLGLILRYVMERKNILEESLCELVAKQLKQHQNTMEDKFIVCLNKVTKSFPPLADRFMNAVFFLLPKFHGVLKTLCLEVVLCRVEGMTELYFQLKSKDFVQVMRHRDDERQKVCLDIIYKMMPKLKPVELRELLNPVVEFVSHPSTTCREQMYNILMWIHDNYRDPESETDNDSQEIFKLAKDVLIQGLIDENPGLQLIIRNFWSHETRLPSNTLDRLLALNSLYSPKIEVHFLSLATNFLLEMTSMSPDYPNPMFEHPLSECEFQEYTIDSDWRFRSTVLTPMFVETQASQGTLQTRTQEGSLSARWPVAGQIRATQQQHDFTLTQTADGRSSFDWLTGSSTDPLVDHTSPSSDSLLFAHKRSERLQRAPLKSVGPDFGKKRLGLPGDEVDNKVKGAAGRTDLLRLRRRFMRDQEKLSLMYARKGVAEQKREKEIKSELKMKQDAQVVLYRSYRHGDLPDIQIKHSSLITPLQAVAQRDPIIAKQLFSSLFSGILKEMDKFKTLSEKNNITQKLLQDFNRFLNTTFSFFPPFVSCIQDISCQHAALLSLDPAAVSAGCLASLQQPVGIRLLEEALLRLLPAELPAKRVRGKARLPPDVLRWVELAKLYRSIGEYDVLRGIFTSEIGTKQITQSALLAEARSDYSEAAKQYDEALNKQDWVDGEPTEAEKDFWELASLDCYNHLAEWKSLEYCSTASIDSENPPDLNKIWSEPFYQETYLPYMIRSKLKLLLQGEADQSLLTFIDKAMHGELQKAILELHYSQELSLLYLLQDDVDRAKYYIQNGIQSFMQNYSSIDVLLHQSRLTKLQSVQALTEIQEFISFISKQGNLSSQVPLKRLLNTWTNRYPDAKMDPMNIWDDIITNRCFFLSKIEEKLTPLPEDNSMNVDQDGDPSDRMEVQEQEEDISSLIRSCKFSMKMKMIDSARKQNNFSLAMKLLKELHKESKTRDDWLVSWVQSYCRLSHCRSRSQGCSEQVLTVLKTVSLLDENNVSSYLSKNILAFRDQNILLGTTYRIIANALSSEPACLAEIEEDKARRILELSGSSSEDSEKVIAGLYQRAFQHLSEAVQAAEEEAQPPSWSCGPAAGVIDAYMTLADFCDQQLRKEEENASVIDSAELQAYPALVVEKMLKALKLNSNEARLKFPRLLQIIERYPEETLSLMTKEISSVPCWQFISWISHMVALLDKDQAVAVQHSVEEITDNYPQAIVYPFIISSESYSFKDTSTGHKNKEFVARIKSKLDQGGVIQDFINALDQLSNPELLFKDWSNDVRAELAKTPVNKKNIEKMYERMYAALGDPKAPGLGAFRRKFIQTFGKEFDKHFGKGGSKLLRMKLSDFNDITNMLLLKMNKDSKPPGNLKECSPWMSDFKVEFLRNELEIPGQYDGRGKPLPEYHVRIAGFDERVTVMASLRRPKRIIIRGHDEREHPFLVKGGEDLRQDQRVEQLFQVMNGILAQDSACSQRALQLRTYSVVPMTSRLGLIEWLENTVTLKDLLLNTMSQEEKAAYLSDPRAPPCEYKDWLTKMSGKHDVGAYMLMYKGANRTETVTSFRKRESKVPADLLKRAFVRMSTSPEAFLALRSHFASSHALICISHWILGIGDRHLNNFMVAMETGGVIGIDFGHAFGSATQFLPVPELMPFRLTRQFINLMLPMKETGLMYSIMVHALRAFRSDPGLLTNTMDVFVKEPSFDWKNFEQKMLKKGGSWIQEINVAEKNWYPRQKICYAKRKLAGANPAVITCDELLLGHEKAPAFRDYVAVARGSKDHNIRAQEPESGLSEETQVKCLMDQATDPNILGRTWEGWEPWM
UniProt Q00796: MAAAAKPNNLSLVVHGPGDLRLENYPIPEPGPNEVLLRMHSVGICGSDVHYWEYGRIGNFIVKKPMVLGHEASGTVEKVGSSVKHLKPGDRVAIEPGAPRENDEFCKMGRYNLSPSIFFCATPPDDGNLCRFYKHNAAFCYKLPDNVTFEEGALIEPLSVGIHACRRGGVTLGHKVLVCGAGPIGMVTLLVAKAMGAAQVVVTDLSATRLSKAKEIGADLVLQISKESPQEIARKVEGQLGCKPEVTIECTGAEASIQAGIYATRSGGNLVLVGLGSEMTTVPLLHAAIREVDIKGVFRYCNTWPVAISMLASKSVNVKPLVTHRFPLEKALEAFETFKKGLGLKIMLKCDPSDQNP
UniProt Q01658: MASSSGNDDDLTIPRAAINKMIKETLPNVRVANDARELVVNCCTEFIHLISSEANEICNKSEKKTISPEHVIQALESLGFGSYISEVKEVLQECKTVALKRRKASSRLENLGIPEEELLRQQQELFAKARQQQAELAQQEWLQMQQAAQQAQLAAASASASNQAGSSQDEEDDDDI
UniProt P62937, whole entry, looked up: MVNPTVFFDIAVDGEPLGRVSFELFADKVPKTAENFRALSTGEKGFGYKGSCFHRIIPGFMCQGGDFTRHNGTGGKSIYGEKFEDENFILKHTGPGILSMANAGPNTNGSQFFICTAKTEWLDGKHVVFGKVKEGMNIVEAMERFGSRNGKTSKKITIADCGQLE
UniProt P79522: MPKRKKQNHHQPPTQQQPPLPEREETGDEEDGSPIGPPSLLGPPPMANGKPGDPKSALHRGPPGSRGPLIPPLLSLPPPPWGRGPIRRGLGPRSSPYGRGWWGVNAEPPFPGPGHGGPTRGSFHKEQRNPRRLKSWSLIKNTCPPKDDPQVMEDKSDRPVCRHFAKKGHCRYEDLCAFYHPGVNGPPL
UniProt Q01167: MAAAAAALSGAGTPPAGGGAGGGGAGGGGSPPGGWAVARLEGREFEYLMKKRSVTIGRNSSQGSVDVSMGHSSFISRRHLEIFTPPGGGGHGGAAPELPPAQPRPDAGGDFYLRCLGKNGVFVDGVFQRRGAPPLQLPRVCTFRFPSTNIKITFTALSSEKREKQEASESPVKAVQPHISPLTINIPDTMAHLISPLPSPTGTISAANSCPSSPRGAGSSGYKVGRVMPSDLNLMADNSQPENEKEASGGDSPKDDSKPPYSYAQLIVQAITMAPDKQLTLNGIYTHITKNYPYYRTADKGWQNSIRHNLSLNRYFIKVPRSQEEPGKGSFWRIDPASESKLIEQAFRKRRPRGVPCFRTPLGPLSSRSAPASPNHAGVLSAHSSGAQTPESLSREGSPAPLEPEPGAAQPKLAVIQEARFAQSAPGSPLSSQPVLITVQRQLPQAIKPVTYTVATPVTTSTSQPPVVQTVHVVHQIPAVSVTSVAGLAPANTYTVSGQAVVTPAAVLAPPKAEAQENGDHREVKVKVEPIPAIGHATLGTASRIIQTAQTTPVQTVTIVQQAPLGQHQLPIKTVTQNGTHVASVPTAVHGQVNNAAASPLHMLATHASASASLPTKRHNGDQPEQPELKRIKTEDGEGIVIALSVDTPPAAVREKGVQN

What follows are targets tested with COC(=O)/C=C/c1ccccc1 [methyl cinnamate] (assay: log2 ratio of iodoacetamide-alkyne labeling of the cysteine site, DMSO over compound (competition); higher = stronger covalent engagement of the cysteine by the compound, active = 1 or more). Settings: 500 µM; treatment time 1 h; system: HEK293T cell lysate.
Summary of the method: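 Electrophile (500 µM) or vehicle was added to HEK293T lysate (2 mg/mL) for 1 h at ambient temperature before iodoacetamide alkyne labelling (1 h) and click coupling to sCIP-TMT reagents. After pooling, overnight trypsin digestion at 37 °C, streptavidin enrichment and acid elution, peptides were measured by Orbitrap Eclipse LC-MS/MS with FAIMS and quantified in FragPipe. Each cysteine's log2 competition ratio compares mean control-channel with mean compound-channel reporter intensity, control over compound. Data came from duplicate channels across three replicates, excluding cysteines quantified in only one replicate.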

log2 ratio of iodoacetamide-alkyne labeling, inactive:
SPTBN1 C964 (UniProt Q01082) 0.0684, RPL7A C199 (UniProt P62424) 0.165, AMPD2 C107 (UniProt Q01433) 0.241, UniProt P62312_C36 0.0237, RPS21 C17 (UniProt P63220) 0.493, CLTC C491 (UniProt Q00610) 0.149, HNRNPU C594 (UniProt Q00839) 0.0385, UniProt P78527_C1791 0.00626, UniProt P84090_C33 0.131, CLTC C926 (UniProt Q00610) 0.199, UniProt P62753_C83 0.187, SORD C120 (UniProt Q00796) 0.0887, GNAS C174 (UniProt P63092) -0.595, DR1 C94 (UniProt Q01658) 0.201, RPL10A C74 (UniProt P62906) 0.0472, TFAP4 C29 (UniProt Q01664) 0.0196, PPIA C115 (UniProt P62937) 0.0498, ATP2C1 C49 (UniProt P98194) -0.217, CDK5 C290 (UniProt Q00535) 0.036, UniProt P62263_C54 -0.0249, UniProt P83916_C156 0.302, PFKP C664 (UniProt Q01813) -0.214, MRPS25 C149 (UniProt P82663) -0.192, PPP2CA C20 (UniProt P67775) 0.227, SATB1 C529 (UniProt Q01826) 0.279, UniProt P62829_C28 0.223, PAFAH1B2 C188 (UniProt P68402) -0.0663, YWHAZ C25 (UniProt P63104) 0.104, AMPD2 C310 (UniProt Q01433) 0.223, HNRNPU C497 (UniProt Q00839) 0.0148, KIF23 C933 (UniProt Q02241) 0.112, MRPS11 C112 (UniProt P82912) 0.208, UniProt P78527_C1904 0.14, PRR3 C176 (UniProt P79522) 0.352, UniProt P78527_C3837 0.282, UniProt P78527_C2342 0.168, FOXK2 C210 (UniProt Q01167) -0.386
